Taken from: PubChem BioAssay AID1259254 (NCATS, 2017)

- Assay: 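Gene knock-downs that lead to re-replication, shown by excess G2 DNA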 (primary screen)
- System: human HCT116 colorectal cancer cells
- Knock-down reagent: single siRNA against human genes
- Time to read-out: 3 days
- Measured: 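Nuclei stained with Hoechst and imaged; cell-cycle phase assigned by DNA content; G2 share scaled per plate, non-targeting siRNA 0%, GMNN siRNA 100%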
- Scale: G2 robust z-score and G2 cells, % of GMNN control: higher = more G2 cells, more excess DNA replication
- Rule for the call: 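Active siRNAs have a G2 robust z of 5 or more median absolute deviations over the median, which in these data means about 38% or higher of GMNN control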
The whole screen tested about 59,000 reagents; this is a part drawn at random. Over the whole deposit, about 1,550 (2.6%) got an active call. 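G2 share is only a proxy for re-replication; each gene was hit by three separate siRNAs, and active genes were retested.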 Unmarked entries are inactive. The numbers tell different reagents against one gene apart. Further read-outs or replicates are left out here. The record does not give: the amount of reagent.

no.	Gene	siRNA no.	G2 robust z-score	G2 cells, % of GMNN control
1	PKN2	1	-0.147	1.93
2	PKN2	2	0.516	6.6
3	PKN2	3	-0.936	-3.62
4	SIAH1	1	0.447	6.11
5	SIAH1	2	3.94	30.7
6	SIAH1	3	-0.739	-2.23
7	TIAL1	1	-0.0805	2.4
8	TIAL1	2	-1.15	-5.16
9	TIAL1	3	1.67	14.7
10	ELMO2	1	0.166	4.14
11	ELMO2	2	-0.11	2.2
12	ELMO2	3	-0.67	-1.75
13	MINAR1	1	-0.243	1.26
14	MINAR1	2	-0.39	0.226
15	MINAR1	3	3.69	28.9
16	NPM1P39	1	-0.526	-0.737
17	NPM1P39	2	-0.351	0.496
18	NPM1P39	3	0.278	4.93
19	MYH2	1	3.75	29.4
20	MYH2	2	-0.678	-1.8
21	MYH2	3	0.518	6.61
22	GJA8	1	-0.566	-1.01
23	GJA8	2	0.14	3.95
24	GJA8	3	-0.102	2.25
25	RGCC	1	0.325	5.25
26	RGCC	2	-0.856	-3.05
27	RGCC	3	1.92	16.5
28	MYLK2	1	0.0963	3.65
29	MYLK2	2	0.795	8.56
30	MYLK2	3	-0.624	-1.42

Laid out differently: 12 of the entries above.
{"Gene":"PKN2","siRNA no.":3,"G2 robust z-score":-0.936,"G2 cells, % of GMNN control":-3.62}
{"Gene":"SIAH1","siRNA no.":1,"G2 robust z-score":0.447,"G2 cells, % of GMNN control":6.11}
{"Gene":"SIAH1","siRNA no.":2,"G2 robust z-score":3.94,"G2 cells, % of GMNN control":30.7}
{"Gene":"SIAH1","siRNA no.":3,"G2 robust z-score":-0.739,"G2 cells, % of GMNN control":-2.23}
{"Gene":"TIAL1","siRNA no.":1,"G2 robust z-score":-0.0805,"G2 cells, % of GMNN control":2.4}
{"Gene":"TIAL1","siRNA no.":2,"G2 robust z-score":-1.15,"G2 cells, % of GMNN control":-5.16}
{"Gene":"TIAL1","siRNA no.":3,"G2 robust z-score":1.67,"G2 cells, % of GMNN control":14.7}
{"Gene":"ELMO2","siRNA no.":1,"G2 robust z-score":0.166,"G2 cells, % of GMNN control":4.14}
{"Gene":"ELMO2","siRNA no.":2,"G2 robust z-score":-0.11,"G2 cells, % of GMNN control":2.2}
{"Gene":"ELMO2","siRNA no.":3,"G2 robust z-score":-0.67,"G2 cells, % of GMNN control":-1.75}
{"Gene":"MINAR1","siRNA no.":1,"G2 robust z-score":-0.243,"G2 cells, % of GMNN control":1.26}
{"Gene":"MINAR1","siRNA no.":2,"G2 robust z-score":-0.39,"G2 cells, % of GMNN control":0.226}

More entries:
no.	Gene	siRNA no.	G2 robust z-score	G2 cells, % of GMNN control
31	CPA4	1	2.93	23.6
32	CPA4	2	2.57	21.1
33	CPA4	3	-1.03	-4.29
34	TSGA13	1	-0.501	-0.56
35	TSGA13	2	-0.17	1.77
36	TSGA13	3	-1	-4.07
37	ADCYAP1	1	-0.768	-2.43
38	ADCYAP1	2	-0.886	-3.26
39	ADCYAP1	3	-0.516	-0.666
40	MMAB	1	-0.194	1.61
41	MMAB	2	1.62	14.4
42	MMAB	3	-0.867	-3.13
43	GADD45A	1	5.37 (active)	40.8
44	GADD45A	2	-0.275	1.04
45	GADD45A	3	0.847	8.93
46	VPS8	1	0.269	4.86
47	VPS8	2	0.271	4.88
48	VPS8	3	-0.859	-3.08
49	HTRA1	1	-0.547	-0.881
50	HTRA1	2	4.95	37.8
51	HTRA1	3	-0.00523	2.93
52	ALPL	1	3.41	27
53	ALPL	2	-0.721	-2.1
54	ALPL	3	-0.13	2.05
55	CLECL1	1	0.28	4.94
56	CLECL1	2	0.135	3.92
57	CLECL1	3	0.326	5.26
58	SPDYE2B	1	-0.719	-2.09
59	SPDYE2B	2	2.05	17.4
60	SPDYE2B	3	0.287	4.99
61	SPX	1	-0.131	2.05
62	SPX	2	1.96	16.7
63	SPX	3	-0.0546	2.58
64	ARMCX2	1	0.383	5.66
65	ARMCX2	2	-0.999	-4.06
66	ARMCX2	3	0.706	7.93
67	GALNT5	1	1.15	11
68	GALNT5	2	3.35	26.5
69	GALNT5	3	-0.185	1.67
70	FGD4	1	-1.56	-7.99
71	FGD4	2	0.229	4.58
72	FGD4	3	0.596	7.16
73	ZNF57	1	-0.95	-3.72
74	ZNF57	2	0.117	3.79
75	ZNF57	3	-0.409	0.0916
76	HDHD3	1	-0.287	0.95
77	HDHD3	2	-0.861	-3.09
78	HDHD3	3	-0.56	-0.969
79	SLC35D4	1	-0.917	-3.48
80	SLC35D4	2	0.66	7.61
81	SLC35D4	3	0.265	4.83
82	PUDP	1	-1.14	-5.06
83	PUDP	2	2.2	18.4
84	PUDP	3	0.0731	3.48
85	BIN3	1	-0.423	-0.00679
86	BIN3	2	1.44	13.1
87	BIN3	3	-1.36	-6.58
